Tests used:
[1] = Photochromic response of coated diethylene glycol bis(allyl carbonate) polymer coupon to activation by artificial sunlight; assay type: physicochemical; settings: Table II; for ΔOD, λmax, change in saturation optical density: 580-620 nm, irradiation for 4 minutes with artificial sunlight; for t1/2, halflife for the transmission to increase by 21% from 42% transmission: after irradiation with artificial sunlight; for ΔTR, percent reduction in visible light transmission: photopic filter, after 4 minutes irradiation with artificial sunlight, 2 mm thick coupon
Procedure: One part of the photochromic compounds of Examples 1-10 were each incorporated into a sprayable lacquer solution of 10 parts of a commercial lacquer (3M Company-lacquer No. 2253), 10 parts toluene and 10 parts methyl ethyl ketone. The lacquer solution was sprayed onto the surface of a 1 inch (2.54 cm) by 1 inch (2.54 cm) by 2 mm thick coupon of a polymer prepared from diethylene glycol bis (allyl carbonate). After drying, the coated coupon was heated in an air oven at 160° C. for 20 minutes. After cooling, the residual lacquer was stripped off with adhesive tape and the surface cleaned with an acetone-wetted cloth. The photochromic tablet was tested for photochromic response to activation by artificial sunlight.
1. ΔTR The percent reduction in visible light transmission
(measured using a photopic filter) induced after 4 minutes irradiation
with artificial sunlight.
2. ΔOD The change in saturation optical density measured in the
range of 580-620 nm induced by irradiation for 4 minutes with artificial
3. t1/2 The halflife in seconds for the transmission of a sample to
increase by 21% from 42% transmission (based on transmission in the clear
state) after irradiation with artificial sunlight.
Photochromic compounds of the prior art were applied to a coupon made from diethylene glycol (bis)allyl carbonate) in the same manner as described in Example 11. The photochromic response to these articles is compared to that of Examples 2, 3, and 4 in Table III. These photochromic compounds can be depicted by the following graphic formula, [drawing 10] wherein R4, R5, R6 and X are identified in Table III.

[2] = Photochromic response of ethanol solution to ultraviolet light; assay type: physicochemical; settings: for Color of ethanol solution on irradiation with ultraviolet light: UV light (366 nm in Examples 13-15), room temperature where stated
Procedure: Ethanol solutions of each of the compounds of Examples 1-9 changed to blue when irradiated with ultraviolet light at room temperature. The solutions returned to their original hue or colorless condition after the UV light was removed.
A suspension of 5-nitroso-6-quinolinol (1.05 grams, 0.006 mole) in 30 milliliters (ml) of toluene was heated to reflux with stirring. To this heated suspension was slowly added over 20 minutes 1.37 grams of 1-butyl-3-methyl-3-ethyl-2-methylene indoline (0.006 mole) dissolved in 20 ml of toluene. The mixture in the reaction vessel was refluxed for three hours and thereafter the reaction mixture was transferred to an evaporating dish and allowed to evaporate to almost dryness. The almost dried mixture was soaked with 7 ml of fresh toluene, filtered and washed with 3 ml of toluene twice. The filtrate and washings were combined and allowed to evaporate. A viscous dark blue gum formed. The resulting gum-paste was redissolved in about 20 ml of diethyl ether, filtered and the filtrate allowed to evaporate in a hood. […] The blue color disappeared in about 5 minutes when the ultraviolet light was removed.
A suspension of 5-nitroso-6-quinolinol (0.52 grams, 0.003 mole) in 20 milliliters (ml) of toluene was heated to about 100° C. with stirring. To this heated suspension was slowly added over about 20 minutes 1.75 grams of 1,2-dimethyl-3,3-bis(p-methoxyphenyl) indolium iodide (0.003 mole) suspended in 20 ml of toluene containing 0.60 grams of triethylamine (0.006 mole). The mixture in the reaction vessel was maintained at about 100° C. for 2.5 hours and the degree of reaction monitored by thin layer chromotography (TLC). The reaction was almost complete after 1 hour. After 2.5 hours at about 100° C., an additional 0.17 grams (0.001 mole) of 5-nitroso-6-quinolinol was added to the reaction vessel, but total reaction of the indolium iodide reactant was not obtained even after 2 hours at about 100° C. The solids in the reaction mixture were separated by decantation and the remaining liquid allowed to evaporate to almost dryness. Olive green crystals formed in the almost dried paste. The almost dried product was soaked with 7 ml of fresh toluene, filtered and slowly washed with 3 ml of toluene. […] The crystalline insoluble powder was washed with ethanol and air dried. An olive green powder (0.79 grams) was obtained. A sample of the powder was dissolved in ethanol and irradiated with ultraviolet light (366 nm) for about 30 seconds.
A suspension of 5-nitroso-6-quinolinol (1.39 grams, 0.008 mole) in 35 ml of toluene was heated to about 100° C. with stirring. To this heated suspension was slowly added over 20-30 minutes 2.95 grams of 1,2,5,6,-tetramethyl-3,3-spiro (cyclohexyl)-[3H] indolium iodide suspended in 35 ml of toluene containing 1.6 grams of triethylamine (0.016 mole). The progress of the reaction was checked by TLC. The mixture in the reaction vessel was maintained at about 100° C. for three hours. Thereafter, the reaction mixture (a dark brown solution) was allowed to evaporate to almost dryness. The resulting paste was soaked with 6 ml of fresh toluene for several minutes, filtered to remove insoluble material and the resulting solids washed with 2 ml of toluene. The filtrate and washing were combined and allowed to evaporate. A dark brown paste (2.07 grams) resulted. A small amount (about 1 milligram) of the paste was dissolved in about 2-3 ml of ethanol and the resulting solution exposed to ultraviolet light (366 nm) at room temperature.

SMILES	ΔOD, λmax, change in saturation optical density [1]	t1/2, halflife for the transmission to increase by 21% from 42% transmission [1]	ΔTR, percent reduction in visible light transmission [1]	Color of ethanol solution on irradiation with ultraviolet light [2]	Time for ethanol solution to lose color / return to original hue after removal of ultraviolet light ([2]; after UV light removed)	Return of color after ultraviolet light removed (in words) ([2]; after UV light removed)
CCC1(C)c2cc(C)c(C)cc2N(C)C12C=Nc1c(ccc3ncccc13)O2 (stereo not shown) [Example 1, 1,3,5,6-tetramethyl-3-ethylspiro[indoline-2,3'[3H]pyrido [3,2 f] [1,4]-benzoxazine]]	1.33	57 s	76%	–	–	–
CN1c2ccccc2C(C)(C)C12C=Nc1c(ccc3ncccc13)O2 (stereo not shown) [Example 2]	0.41	14 s	48%	–	–	–
Cc1cc2c(cc1C)C(C)(C)C1(C=Nc3c(ccc4ncccc34)O1)N2C (stereo not shown) [Example 3]	1.13	41 s	72%	–	–	–
COc1ccc2c(c1)C(C)(C)C1(C=Nc3c(ccc4ncccc34)O1)N2C (stereo not shown) [Example 4]	0.98	45 s	66%	–	–	–
Cc1c(Cl)ccc2c1N(C)C1(C=Nc3c(ccc4ncccc34)O1)C2(C)C (stereo not shown) [Example 5]	0.16	8 s	–	–	–	–
CCC1(C)c2ccccc2N(C)C12C=Nc1c(ccc3ncccc13)O2 (stereo not shown) [Example 6]	0.49	18 s	–	–	–	–
CN1c2ccccc2C(C)(c2ccccc2)C12C=Nc1c(ccc3ncccc13)O2 (stereo not shown) [Example 7]	0.61	21 s	–	–	–	–
CN1c2ccccc2C(c2ccccc2)(c2ccccc2)C12C=Nc1c(ccc3ncccc13)O2 (stereo not shown) [Example 8]	0.29	21 s	37%	–	–	–
CN1c2ccccc2C2(CCCCC2)C12C=Nc1c(ccc3ncccc13)O2 (stereo not shown) [Example 9]	0.40	26 s	46%	–	–	–
CCCCN1c2ccccc2C(C)(CC)C12C=Nc1c(ccc3ncccc13)O2 (stereo not shown) [Example 10]	0.67	21 s	59%	turned a blue color	about 5 minutes	–
COc1ccc(C2(c3ccc(OC)cc3)c3ccccc3N(C)C23C=Nc2c(ccc4ncccc24)O3)cc1 (stereo not shown) [Example 13]	–	–	–	turned from pale green to blue	–	returned to pale green
Cc1cc2c(cc1C)C1(CCCCC1)C1(C=Nc3c(ccc4ncccc34)O1)N2C (stereo not shown) [Example 14]	–	–	–	turned pale blue	about 2 minutes	–
C=CCN1c2cc(C)c(C)cc2C(C)(CC)C12C=Nc1c(ccc3ncccc13)O2 (stereo not shown) [Example 15]	–	–	–	turned green	1 to 2 min	–
CCN1c2cc(C)c(C)cc2C(C)(CC)C12C=Nc1c(ccc3ncccc13)O2 (stereo not shown) [Example 16]	–	–	–	became deep blue	3 to 4 min	–
CCCCN1c2cc(C)c(C)cc2C(C)(CC)C12C=Nc1c(ccc3ncccc13)O2 (stereo not shown) [Example 17]	–	–	–	became sky blue	about 5 minutes	–
CCCCN1c2cc(C)c(C)cc2C(C)(C)C12C=Nc1c(ccc3ncccc13)O2 (stereo not shown) [Example 18]	–	–	–	turned a dark blue	4 to 5 min	–
CCC1(C)c2cc(C)c(C)cc2N(Cc2ccccc2)C12C=Nc1c(ccc3ncccc13)O2 (stereo not shown) [Example 19]	–	–	–	turned medium blue	3 to 4 min	–
